Measured values published in paper PMC5438371.
Results are given in words; binding and its absence hold for the method and conditions named. Binding seen in cells or lysates may run through a third protein. Some results given as binding are weak or reduced against the parent protein; the word gives no strength.

Sequences of proteins named here, by UniProt entry; tags and fusion partners are left off. Residues count along the entry.
UniProt P15209, residues 32-821: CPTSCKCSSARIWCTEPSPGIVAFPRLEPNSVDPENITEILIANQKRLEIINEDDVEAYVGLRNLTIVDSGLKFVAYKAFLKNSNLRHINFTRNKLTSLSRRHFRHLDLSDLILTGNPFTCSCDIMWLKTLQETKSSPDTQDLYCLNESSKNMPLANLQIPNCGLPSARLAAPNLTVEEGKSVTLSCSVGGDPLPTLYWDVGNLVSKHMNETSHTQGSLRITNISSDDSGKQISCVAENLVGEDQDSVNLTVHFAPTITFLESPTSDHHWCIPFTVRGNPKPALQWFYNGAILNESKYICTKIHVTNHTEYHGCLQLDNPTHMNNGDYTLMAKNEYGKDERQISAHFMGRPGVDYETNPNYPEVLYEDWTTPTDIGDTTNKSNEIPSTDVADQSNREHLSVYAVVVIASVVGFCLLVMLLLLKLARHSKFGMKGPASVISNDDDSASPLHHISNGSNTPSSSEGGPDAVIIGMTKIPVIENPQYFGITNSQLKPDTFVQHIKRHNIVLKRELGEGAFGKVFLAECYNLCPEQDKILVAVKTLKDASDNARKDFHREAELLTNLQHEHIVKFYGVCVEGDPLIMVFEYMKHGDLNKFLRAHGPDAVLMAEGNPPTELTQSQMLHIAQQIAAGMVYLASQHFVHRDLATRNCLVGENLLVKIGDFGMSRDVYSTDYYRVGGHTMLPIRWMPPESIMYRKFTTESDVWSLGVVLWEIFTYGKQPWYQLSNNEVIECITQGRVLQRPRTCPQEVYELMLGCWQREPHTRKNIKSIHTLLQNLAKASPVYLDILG
UniProt Q62421: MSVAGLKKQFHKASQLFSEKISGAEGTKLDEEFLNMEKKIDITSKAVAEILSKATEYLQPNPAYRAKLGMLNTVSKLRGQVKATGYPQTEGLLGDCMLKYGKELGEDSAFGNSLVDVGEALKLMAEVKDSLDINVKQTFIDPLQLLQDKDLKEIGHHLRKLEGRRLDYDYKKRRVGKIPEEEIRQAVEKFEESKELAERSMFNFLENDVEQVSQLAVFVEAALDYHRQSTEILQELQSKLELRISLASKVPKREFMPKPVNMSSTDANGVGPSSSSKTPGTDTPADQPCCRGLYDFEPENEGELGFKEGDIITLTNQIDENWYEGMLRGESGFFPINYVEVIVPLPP

Assays:
[1] = target: HA-tagged TrkB (UniProt P15209); assay: co-IP; HEK293 co-transfected with TrkB-HA and EndophilinA-GFP; cells stimulated with 100 ng/ml BDNF for 20 minutes; lysis in 10 mM Tris-HCl pH 7.5, 150 mM NaCl, 0.5 mM EDTA, 0.5% NP-40; HA antibody on ProteinA magnetic beads, 4 hours; Western blot
[2] = target: HA-tagged TrkB (UniProt P15209); assay: condition: only cells without BDNF (0.1% BSA control); co-IP; HEK293 co-transfected with TrkB-HA and EndophilinA-GFP; cells without BDNF (0.1% BSA as a control for 20 minutes); lysis in 10 mM Tris-HCl pH 7.5, 150 mM NaCl, 0.5 mM EDTA, 0.5% NP-40; HA antibody on ProteinA magnetic beads, 4 hours; Western blot

With “GFP-tagged EndophilinA3 (from UniProt Q62421 1-347)” the binding [1] was “binds” and the binding [2] was “no binding”.
